Binding data for 2 substances are collected here from publication PMC4599285.

Amino acid sequences for entries named in this document (tags omitted).
UniProt P10415: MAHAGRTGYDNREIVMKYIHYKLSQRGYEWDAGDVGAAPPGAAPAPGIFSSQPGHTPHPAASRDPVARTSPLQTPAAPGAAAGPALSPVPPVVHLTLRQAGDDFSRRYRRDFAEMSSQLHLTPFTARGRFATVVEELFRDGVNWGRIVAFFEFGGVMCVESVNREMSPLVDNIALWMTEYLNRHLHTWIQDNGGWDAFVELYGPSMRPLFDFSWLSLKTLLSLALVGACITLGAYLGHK
UniProt P31749: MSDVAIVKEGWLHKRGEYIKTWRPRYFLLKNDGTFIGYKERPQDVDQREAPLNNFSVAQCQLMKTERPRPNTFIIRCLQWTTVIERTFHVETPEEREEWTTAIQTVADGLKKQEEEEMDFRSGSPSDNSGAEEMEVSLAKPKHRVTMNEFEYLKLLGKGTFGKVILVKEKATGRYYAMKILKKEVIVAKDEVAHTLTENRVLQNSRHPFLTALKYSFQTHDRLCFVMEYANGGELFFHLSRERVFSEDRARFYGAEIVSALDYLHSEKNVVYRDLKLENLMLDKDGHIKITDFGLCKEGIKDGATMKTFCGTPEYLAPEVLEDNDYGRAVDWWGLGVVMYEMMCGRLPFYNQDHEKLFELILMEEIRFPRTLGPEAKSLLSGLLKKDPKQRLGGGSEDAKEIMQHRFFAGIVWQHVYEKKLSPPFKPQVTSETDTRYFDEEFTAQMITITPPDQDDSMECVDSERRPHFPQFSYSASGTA

No constants are given. Whether binding was seen depends on the method and setting. In cells and extracts the contact can be indirect. Some binding calls cover weakened binding; strength is not graded here.

The test concerns the target T1, Apoptosis-stimulating protein of p53-2 (ASPP2), overexpressed from recombinant adenovirus-ASPP2 (UniProt Q13625).
T1 sequence: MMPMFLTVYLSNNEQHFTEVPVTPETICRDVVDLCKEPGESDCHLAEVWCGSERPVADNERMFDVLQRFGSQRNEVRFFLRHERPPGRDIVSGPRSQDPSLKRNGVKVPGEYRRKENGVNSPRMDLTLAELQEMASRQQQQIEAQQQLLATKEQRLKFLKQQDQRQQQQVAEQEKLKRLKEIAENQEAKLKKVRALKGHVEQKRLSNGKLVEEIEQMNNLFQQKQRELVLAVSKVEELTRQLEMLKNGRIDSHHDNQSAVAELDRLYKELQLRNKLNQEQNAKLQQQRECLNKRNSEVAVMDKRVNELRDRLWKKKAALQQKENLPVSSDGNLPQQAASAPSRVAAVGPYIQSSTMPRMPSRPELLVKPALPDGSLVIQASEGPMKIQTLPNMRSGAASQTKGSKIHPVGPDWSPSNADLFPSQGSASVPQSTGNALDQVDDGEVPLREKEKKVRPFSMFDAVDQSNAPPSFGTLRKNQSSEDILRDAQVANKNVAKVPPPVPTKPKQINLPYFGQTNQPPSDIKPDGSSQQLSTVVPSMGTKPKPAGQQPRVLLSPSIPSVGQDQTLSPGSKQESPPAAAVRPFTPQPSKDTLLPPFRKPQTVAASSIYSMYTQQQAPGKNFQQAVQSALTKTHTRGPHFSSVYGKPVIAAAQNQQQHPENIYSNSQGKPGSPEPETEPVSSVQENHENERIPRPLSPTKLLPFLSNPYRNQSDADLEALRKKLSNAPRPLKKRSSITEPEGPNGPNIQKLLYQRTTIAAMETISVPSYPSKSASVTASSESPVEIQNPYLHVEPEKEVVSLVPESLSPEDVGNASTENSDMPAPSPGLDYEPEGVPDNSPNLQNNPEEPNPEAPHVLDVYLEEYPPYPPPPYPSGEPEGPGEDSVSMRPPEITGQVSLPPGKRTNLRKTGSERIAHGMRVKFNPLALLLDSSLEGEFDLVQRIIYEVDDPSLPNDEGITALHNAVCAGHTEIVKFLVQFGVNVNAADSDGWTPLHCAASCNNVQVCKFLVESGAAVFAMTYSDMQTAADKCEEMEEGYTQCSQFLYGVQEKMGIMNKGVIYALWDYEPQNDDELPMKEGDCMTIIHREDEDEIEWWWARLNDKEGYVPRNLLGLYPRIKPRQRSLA
Briefly: co-IP; isolated nuclei of rAd-ASPP2-infected HepG2 cells transfected with the indicated siRNAs, 24 and 48 hours; bait not stated.

Consider “nuclear Bcl-2, endogenous in HepG2 (from UniProt P10415 1-239)”, for which the binding entry was “binds”.
Consider “nuclear p-AKT, endogenous in HepG2 (from UniProt P31749 1-480)”, for which the binding entry is “binds”.
